Laboratory results taken from US20100034778A1, “STEM CELLS” (DUKE UNIVERSITY, priority 2005, published 2010).
For at least one compound, name, drawing or mass did not settle the structure.

Test system: human BM SRCs
Test: In vivo long-term repopulating assay in NOD/SCID mice (SRC assay) of cultured progeny
Conditions: LGD1506+TSF cultures, with confidence interval
Description: In Vivo Long-Term Repopulating Assays in NOD/SCID Mice
NOD/SCID mice (Schulz et al, J. Immunol. 154:180-191 (1995)) were transplanted with either day 0 FACS-sorted BM or CB CD34^+CD38^− lin^− HSC-enriched cells or the progeny of CD34^+CD38^−lin− cells cultured with TSF alone or TSF supplemented with 1 μM LGD506, an RXR-specific ligand. Cells were transplanted via tail vein injection after irradiating NOD/SCID mice with 300 cGy using an X-ray irradiator as previously described (Chute et al, Blood 100:4433-4439 (2002), Chute et al, Blood 105:576-583 (2005)). […]
Comparisons of data from in vitro experiments were made using the Student's t test. For purposes of the limiting dilution analysis, a transplanted mouse was scored as positively engrafted if ≧0.1% of the marrow cells expressed human-CD45 via high resolution FACS analysis. […] SRC frequency in each cell source was calculated using the maximum likelihood estimator as described previously by Taswell (J. Immunol. 126:1614-1619 (1981), Wang et al, Blood 89:3919-3924 (1997), Ueda et al, J. Clin. Invest. 105:1013-1021 (2000)). Confidence intervals for the frequencies were calculated using the profile likelihood method, and the likelihood ratio test was used to confirm the fit of the model.

C/C(=C/C=C/C(C)=C/C(=O)O)c1cc(C(C)(C)C)cc(C(C)(C)C)c1OCC(F)F [LGD1506]
SRC frequency (Poisson statistical analysis): 1 in 3,100 (CI, 1/1,000−1/11,000)
